# Inconclusive results, whose numbers are uncertain, are shown with a selection of clear calls. For some assays here: Potencies beside an inconclusive call are fits to weak or partial responses and may not hold up. The source made the active and inactive calls. The call rests on the fitted dose curve; in most records, active means well fitted curve in the direction sought with a large enough effect; inconclusive means small, poorly fitted or top-dose-only effect, or another doubt; inactive means no such curve, though single readings can be large; an effect the other way counts as inactive or inconclusive.
# How the values were obtained:
# [1] = Quantitative High-Throughput drug screen in 47 multiple myeloma cell lines against the NCATS MIPE library collection: JIM3_ECACC cell viability assay (AID 1918963; further: nearly all actives have a fitted effect of over 35% in size); conditions: JIM3 myeloma viability, CellTiter-Glo ATP, 48 h; series mostly up to 45.8 µM
# In short: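 Inhibition of cell viability is measured here. Each line was plated at 500 cells per well, treated with MIPE 4.0 drugs, kept 48 hours at 37C, then assayed for ATP content by CellTiter-Glo luminescence.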
# [2] = Quantitative High-Throughput drug screen in 47 multiple myeloma cell lines against the NCATS MIPE library collection: JIM1_ECACC cell viability assay (AID 1918964); conditions: JIM1 myeloma viability, CellTiter-Glo ATP luminescence, 48 h; viability (% of DMSO): at 45.8 µM (top of the series)
# In short: (§1)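 Viability readout: CellTiter-Glo luminescence following 5 min room-temperature incubation with reagent. Prior exposure: 48 h, 37C, humidified 5% CO2, 500 cells per well.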
# [3] = Quantitative High-Throughput drug screen in 47 multiple myeloma cell lines against the NCATS MIPE library collection: JJN3_DSMZ cell viability assay (AID 1918966; further: nearly all actives have a fitted effect of over 50% in size); conditions: JJN3 myeloma cells viability, CellTiter-Glo ATP, 48 h; series mostly up to 45.8 µM
# In short: as §1
# [4] = Quantitative High-Throughput drug screen in 47 multiple myeloma cell lines against the NCATS MIPE library collection: H1112_PLB cell viability assay (AID 1918967; further: nearly all actives have a fitted effect of over 30% in size); conditions: H1112 myeloma cells viability, ATP luminescence, 48 h; viability: at 45.8 µM (top of the series)
# In short: as §1
# [5] = Quantitative High-Throughput drug screen in 47 multiple myeloma cell lines against the NCATS MIPE library collection: Karpas25_ECACC cell viability assay (AID 1918968; further: nearly all actives have a fitted effect of over 35% in size); conditions: Karpas25 myeloma viability, CellTiter-Glo ATP, 48 h; viability (% of control): at 45.8 µM (top of the series)
# In short: as §1
# [6] = Quantitative High-Throughput drug screen in 47 multiple myeloma cell lines against the NCATS MIPE library collection: KMS27_JCRB cell viability assay (AID 1918970); conditions: KMS27 myeloma cells, CellTiter-Glo ATP viability, 48 h; viability (% of DMSO): at 45.8 µM (top of the series); further: nearly all actives have a fitted effect of over 30% in size
# In short: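 CellTiter-Glo luminescence after 48 h drug exposure at 37 °C; 500 cells/well, 1536-well format, pin-tool compound addition; DMSO = 100%, media-only = 0% viability.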
# [7] = Quantitative High-Throughput drug screen in 47 multiple myeloma cell lines against the NCATS MIPE library collection: KMS12PE_JCRB cell viability assay (AID 1918972); conditions: KMS12PE myeloma viability, CellTiter-Glo ATP, 48 h; viability: at 45.8 µM (top of the series); further: nearly all actives have a fitted effect of over 30% in size
# In short: (§2)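 qHTS of the MIPE 4.0 collection: 500 myeloma cells/well, 48 h drug exposure at 37C in 5% CO2, then CellTiter-Glo for 5 min at room temperature before luminescence reading.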
# [8] = Quantitative High-Throughput drug screen in 47 multiple myeloma cell lines against the NCATS MIPE library collection: KMS20_JCRB cell viability assay (AID 1918973); conditions: CellTiter-Glo ATP, 48 h; viability (% of DMSO): at 45.8 µM (top of the series); further: nearly all actives have a fitted effect of over 45% in size
# In short: as §1
# [9] = Quantitative High-Throughput drug screen in 47 multiple myeloma cell lines against the NCATS MIPE library collection: KMS21BM_JCRB cell viability assay (AID 1918974); conditions: ATP luminescence, 48 h; viability: at 45.8 µM (top of the series) unless noted
# In short: as §1
# [10] = Quantitative High-Throughput drug screen in 47 multiple myeloma cell lines against the NCATS MIPE library collection: KMS26_JCRB cell viability assay (AID 1918975); conditions: KMS26 myeloma cells viability, CellTiter-Glo ATP, 48 h; viability (% of DMSO): at 45.8 µM (top of the series); further: nearly all actives have a fitted effect of over 45% in size
# In short: as §2
# [11] = Quantitative High-Throughput drug screen in 47 multiple myeloma cell lines against the NCATS MIPE library collection: MOLP8_DSMZ cell viability assay (AID 1918977); conditions: MOLP8 myeloma viability, CellTiter-Glo ATP luminescence, 48 h; viability (% of control): at 45.8 µM (top of the series); further: nearly all actives have a fitted effect of over 45% in size
# In short: (§3)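 Viability after 48 h drug exposure was measured as ATP-dependent luminescence. Cells, 500 per well, sat at 37 °C under 5% CO2; DMSO wells set 100%, media-only wells 0%.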
# [12] = Quantitative High-Throughput drug screen in 47 multiple myeloma cell lines against the NCATS MIPE library collection: NCIH929_DSMZ cell viability assay (AID 1918978); further: nearly all actives have a fitted effect of over 35% in size
# In short: as §3
# [13] = Quantitative High-Throughput drug screen in 47 multiple myeloma cell lines against the NCATS MIPE library collection: MM1S_ATCC cell viability assay (AID 1918980); further: nearly all actives have a fitted effect of over 45% in size
# In short: as §3
# [14] = Quantitative High-Throughput drug screen in 47 multiple myeloma cell lines against the NCATS MIPE library collection: LP1_DSMZ cell viability assay (AID 1918982); further: nearly all actives have a fitted effect of over 35% in size
# In short: as §3
# [15] = Quantitative High-Throughput drug screen in 47 multiple myeloma cell lines against the NCATS MIPE library collection: KMS28PE_JCRB cell viability assay (AID 1918983); further: nearly all actives have a fitted effect of over 35% in size
# In short: as §3
# [16] = Quantitative High-Throughput drug screen in 47 multiple myeloma cell lines against the NCATS MIPE library collection: OCIMY1_PLB cell viability assay (AID 1918979); further: nearly all actives have a fitted effect of over 35% in size
# In short: as §3
# [17] = Quantitative High-Throughput drug screen in 47 multiple myeloma cell lines against the NCATS MIPE library collection: KMS12BM_JCRB cell viability assay (AID 1918971); further: nearly all actives have a fitted effect of over 35% in size
# In short: as §2
# [18] = Quantitative High-Throughput drug screen in 47 multiple myeloma cell lines against the NCATS MIPE library collection: MMM1_PLB cell viability assay (AID 1918976); further: nearly all actives have a fitted effect of over 35% in size
# In short: as §3
# [19] = Quantitative High-Throughput drug screen in 47 multiple myeloma cell lines against the NCATS MIPE library collection: MM1R_ATCC cell viability assay (AID 1918981); further: nearly all actives have a fitted effect of over 35% in size
# In short: as §3
# Potency means the concentration at half of the fitted maximal effect.
Structure (SMILES),Potency [1],Potency [2],Potency [3],Potency [4],Potency [5],Potency [6],Potency [7],Potency [8],Potency [9],Potency [10],Potency [11],Potency [12],Potency [13],Potency [14],Potency [15],Potency [16],Potency [17],Potency [18],Potency [19]
COc1ccc(-c2c(-c3ccc(O)cc3O)n[nH]c2C)cc1,"inconclusive: 42.9 µM [cytotoxic, partial curve]","inconclusive: 17.1 µM [cytotoxic, partial curve, poor fit]","inconclusive: 67.9 µM [cytotoxic, single point]","inconclusive: 12.1 µM [cytotoxic, full curve, poor fit]",active: 27 µM,"inconclusive: 42.9 µM [cytotoxic, partial curve]","inconclusive: 38.2 µM [cytotoxic, partial curve]","inconclusive: 10.8 µM [cytotoxic, full curve, poor fit]","inconclusive: 30.3 µM [cytotoxic, partial curve, poor fit]","inconclusive: 38.2 µM [cytotoxic, partial curve, poor fit]","inconclusive: 34 µM [cytotoxic, partial curve, poor fit]",active: 19.1 µM,inactive,"inconclusive: 38.2 µM [cytotoxic, partial curve]",inactive,–,–,–,–
O=C(Nc1cccc(Br)c1)c1cccc(S(=O)(=O)N2CCCCCC2)c1,"inconclusive: 18.7 µM [cytotoxic, partial curve]",active: 7.43 µM,active: 20.9 µM,"inconclusive: 16.6 µM [cytotoxic, partial curve]",–,–,–,"inconclusive: 3.32 µM [cytotoxic, partial curve, poor fit]","inconclusive: 18.7 µM [cytotoxic, partial curve, poor fit]","inconclusive: 9.35 µM [cytotoxic, partial curve, poor fit]",inactive,"inconclusive: 20.9 µM [cytotoxic, single point]","inconclusive: 37.2 µM [cytotoxic, single point]",active: 10.5 µM,active: 23.5 µM,active: 14.8 µM,–,–,–
NCCc1cnc[nH]1,"inconclusive: 2.64 µM [cytotoxic, partial curve, poor fit]","inconclusive: 7.43 µM [cytotoxic, full curve, poor fit]",inactive,–,inactive,inactive,–,"inconclusive: 1.18 µM [cytotoxic, full curve, poor fit]","inconclusive: 29.6 µM [rising, partial curve, poor fit]",–,"inconclusive: 3.32 µM [cytotoxic, partial curve, poor fit]",–,"inconclusive: 0.296 µM [cytotoxic, full curve, poor fit]","inconclusive: 0.0013 µM [cytotoxic, full curve, poor fit]",–,inactive,inactive,active: 0.0132 µM,–
CC1(C)C(=O)N(CCN2CCC(C(=O)c3ccc(F)cc3)CC2)c2ccccc21,"inconclusive: 29.6 µM [cytotoxic, single point]","inconclusive: 0.833 µM [cytotoxic, full curve, poor fit]","inconclusive: 16.6 µM [cytotoxic, partial curve, poor fit]","inconclusive: 26.4 µM [cytotoxic, single point]",–,active: 13.2 µM,–,active: 4.18 µM,"inconclusive: 0.743 µM [cytotoxic, full curve, poor fit]","inconclusive: 0.0013 µM [rising, full curve, poor fit]","inconclusive: 18.7 µM [cytotoxic, partial curve, poor fit]","inconclusive: 29.6 µM [cytotoxic, single point]",–,"inconclusive: 37.2 µM [cytotoxic, partial curve, poor fit]",inactive,active: 7.43 µM,"inconclusive: 0.0012 µM [rising, full curve, poor fit]","inconclusive: 0.0083 µM [rising, full curve, poor fit]",–
O=c1ccn([C@@H]2O[C@H](CO)[C@H](O)[C@H]2O)c(=O)[nH]1,inactive,"inconclusive: 4.69 µM [cytotoxic, full curve, poor fit]",inactive,inactive,inactive,inactive,"inconclusive: 11.8 µM [cytotoxic, single point]","inconclusive: 0.0148 µM [cytotoxic, full curve, poor fit]","inconclusive: 0.469 µM [cytotoxic, full curve, poor fit]","inconclusive: 16.6 µM [cytotoxic, partial curve, poor fit]","inconclusive: 4.18 µM [cytotoxic, full curve, poor fit]",–,–,active: 14.8 µM,"inconclusive: 16.6 µM [cytotoxic, partial curve, poor fit]",–,–,–,inactive
CC(C)(C)C(=O)Oc1ccc2c(c1)nc(NC(=O)c1cccc([N+](=O)[O-])c1)n2CCCO,inactive,inactive,"inconclusive: 37.2 µM [cytotoxic, single point]",–,–,–,inconclusive: 0.001 µM,"inconclusive: 1.48 µM [cytotoxic, full curve, poor fit]",–,inactive,"inconclusive: 26.4 µM [cytotoxic, single point]",–,–,"inconclusive: 4.69 µM [cytotoxic, full curve, poor fit]","inconclusive: 26.4 µM [cytotoxic, single point]",inactive,"inconclusive: 4.69 µM [cytotoxic, partial curve, poor fit]",active: 13.2 µM,"inconclusive: 14.8 µM [cytotoxic, partial curve, poor fit]"

# — PubChem BioAssay (NCATS)
